{
  "sequences": {"note": "Chains of the proteins cited; added tags and fusions are not shown. Lines headed by an entry give the natural chain unless they say otherwise; changes in a name come on top.", "UniProt Q9UI95": "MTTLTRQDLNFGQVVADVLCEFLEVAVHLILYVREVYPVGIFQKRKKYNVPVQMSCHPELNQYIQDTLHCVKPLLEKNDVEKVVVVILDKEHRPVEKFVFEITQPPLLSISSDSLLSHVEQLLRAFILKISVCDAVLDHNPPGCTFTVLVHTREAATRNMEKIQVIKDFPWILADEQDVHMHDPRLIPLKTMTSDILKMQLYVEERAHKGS"},
  "source": "paper PMC7181697",
  "key": {"REV7^E35A (human)": {"molecular_target": "REV7^E35A (human) (UniProt Q9UI95)", "test": "SEC-MALS; co-expressed and co-purified REV7-SHLD3(1-82) samples; 100 μl at 5 mg/ml, WTC-015S5 column, 20 mM Tris-HCl pH 8.0, 150 mM NaCl, 1% glycerol, 1 mM TCEP, 0.01% NaN3; both purified"}, "REV7^K44A (human)": {"molecular_target": "REV7^K44A (human) (UniProt Q9UI95)", "test": "SEC-MALS; co-expressed and co-purified REV7-SHLD3(1-82) samples; 100 μl at 5 mg/ml, WTC-015S5 column, 20 mM Tris-HCl pH 8.0, 150 mM NaCl, 1% glycerol, 1 mM TCEP, 0.01% NaN3; both purified"}, "MBP-SHLD2(1–60) (human) [1]": {"molecular_target": "T1, MBP-SHLD2(1–60) (human) (UniProt Q86V20)", "T1 sequence": "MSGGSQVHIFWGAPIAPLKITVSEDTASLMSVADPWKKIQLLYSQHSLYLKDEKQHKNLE", "test": "pull-down; 30 μg MBP-SHLD2(1-60) on dextrin beads, 20 μg REV7-SHLD3(1-82) with or without 20 μg REV7 added for 30 min; washed with 20 mM Tris pH 8.0, 500 mM NaCl, 1% glycerol, 0.5 mM TCEP, 0.5% NP-40; SDS-PAGE, Coomassie; both purified"}, "REV7^K129A (human)": {"molecular_target": "REV7^K129A (human) (UniProt Q9UI95)", "test": "SEC-MALS; co-expressed and co-purified REV7-SHLD3(1-82) samples; 100 μl at 5 mg/ml, WTC-015S5 column, 20 mM Tris-HCl pH 8.0, 150 mM NaCl, 1% glycerol, 1 mM TCEP, 0.01% NaN3; both purified"}, "REV7^K190A (human)": {"molecular_target": "REV7^K190A (human) (UniProt Q9UI95)", "test": "SEC-MALS; co-expressed and co-purified REV7-SHLD3(1-82) samples; 100 μl at 5 mg/ml, WTC-015S5 column, 20 mM Tris-HCl pH 8.0, 150 mM NaCl, 1% glycerol, 1 mM TCEP, 0.01% NaN3; both purified"}, "REV7^R124A (human)": {"molecular_target": "REV7^R124A (human) (UniProt Q9UI95)", "test": "SEC-MALS; co-expressed and co-purified REV7-SHLD3(1-82) samples; 100 μl at 5 mg/ml, WTC-015S5 column, 20 mM Tris-HCl pH 8.0, 150 mM NaCl, 1% glycerol, 1 mM TCEP, 0.01% NaN3; both purified"}, "MBP-SHLD2(1–60) (human) [2]": {"molecular_target": "T1, MBP-SHLD2(1–60) (human)", "test": "SEC; Superdex 200 Increase 10/300 GL, 20 mM Tris/HCl pH 8.0, 150 mM NaCl, 1% glycerol, 1 mM TCEP; proteins mixed and incubated 10 min on ice; 0.5 ml fractions on SDS-PAGE, Coomassie; both purified"}},
  "note": "No constants are given. Whether binding was seen depends on the method and setting. Some results given as binding are weak or reduced against the parent protein; the word gives no strength. For some of these results: Tags and fused reporters may be left off the sequences shown.",
  "data": [
    {"substance": "REV7^E35A (from UniProt Q9UI95 1-211)", "values": [
      {"measurement": "binding", "setting": "REV7^E35A (human)", "value": "no binding"}
    ]},
    {"substance": "REV7^K44A (from UniProt Q9UI95 1-211)", "values": [
      {"measurement": "binding", "setting": "REV7^K44A (human)", "value": "no binding"}
    ]},
    {"substance": "REV7^K44A-SHLD3(1–82) (from UniProt Q9UI95 1-211; Q6ZNX1 1-82) (complex)", "values": [
      {"measurement": "binding", "setting": "MBP-SHLD2(1–60) (human) [1]", "value": "binds weakly"}
    ]},
    {"substance": "REV7^K129A (from UniProt Q9UI95 1-211)", "values": [
      {"measurement": "binding", "setting": "REV7^K129A (human)", "value": "no binding"}
    ]},
    {"substance": "REV7^K129A-SHLD3(1–82) (from UniProt Q9UI95 1-211; Q6ZNX1 1-82) (complex)", "values": [
      {"measurement": "binding", "setting": "MBP-SHLD2(1–60) (human) [1]", "value": "binds weakly"}
    ]},
    {"substance": "REV7^K190A (from UniProt Q9UI95 1-211)", "values": [
      {"measurement": "binding", "setting": "REV7^K190A (human)", "value": "no binding"}
    ]},
    {"substance": "REV7^K190A-SHLD3(1–82) (from UniProt Q9UI95 1-211; Q6ZNX1 1-82) (complex)", "values": [
      {"measurement": "binding", "setting": "MBP-SHLD2(1–60) (human) [1]", "value": "binds weakly"}
    ]},
    {"substance": "REV7^R124A (from UniProt Q9UI95 1-211)", "values": [
      {"measurement": "binding", "setting": "REV7^R124A (human)", "value": "no binding"}
    ]},
    {"substance": "REV7^R124A-SHLD3(1–82) (from UniProt Q9UI95 1-211; Q6ZNX1 1-82) (complex)", "values": [
      {"measurement": "binding", "setting": "MBP-SHLD2(1–60) (human) [2]", "value": "no binding"},
      {"measurement": "binding", "setting": "MBP-SHLD2(1–60) (human) [1]", "value": "no binding"}
    ]}
  ]
}
